{
  "source": "patent US20200270588A1",
  "about": "“GLUCOSYL TRANSFERASE POLYPEPTIDES AND METHODS OF USE” (Syngenta Participations AG, priority 2017, published 2020)",
  "system": "bx glucosyl transferases",
  "experiment": "LC/MS characterisation of enzyme product glucosides against synthetic standards",
  "type": "biochemical",
  "data": [
    {"molecule": "CON1C(=O)N(c2cc(C(F)(F)F)ccn2)C(O)[C@@H]1C", "note": "(stereo partly drawn) [Compound VI]", "values": [
      {"measurement": "glucoside product formed", "setting": "all bx enzymes tested", "result": "only the S-beta stereoisomer O-glucoside product"}
    ]},
    {"molecule": "CN1CC(O)N(c2cc(C(F)(F)F)ccn2)C1=O", "note": "(stereo not drawn) [Compound V]", "values": [
      {"measurement": "glucoside product formed", "setting": "C-terminally His tagged SEQ ID NO1 and its A334R mutant", "result": "predominantly the conjugate product matching the 22902-13 isomer standard"},
      {"measurement": "glucoside product formed", "setting": "C-terminally His-tagged Zea mays BX8 derivatives SEQ ID's 38 and 51", "result": "matched the minor component of the 22902-11 isomer standard"}
    ]}
  ]
}
